Test results as given in US20250066509A1.
No constants are given. Whether binding was seen depends on the method and setting. A result given as binding can be weak or reduced; the word gives no strength.

What was measured:
[1] = molecular target: human βKlotho extracellular segment protein (human); assay: Gator BLI; antibody captured on Protein A probe, human βKlotho ECD in solution
[2] = molecular target: human βKlotho extracellular segment protein (human); assay: Gator BLI

binding [1]: binds
binding [2]: binds
B1: CB-8-23 (antibody, human IgG1, V domains shown)
VH: EVQLVQSGAEVKKPGASVKVSCKASGYTFTSGGISWVRQAPGQGLEWMGWISAYNGRTNYAQKLQGRVTMTTDTSTSTAYMELRSLRSDDTAVYYCATLYGSGSLYYWGQGTLVTVSS
VL: DIVMTQSPSSLSAPVGDRVTITCQASQDIRNYINWFQQKPGKAPKLLIYAASFLQSGVPSRFSGSGSGTDFTLTISSLQPEDFATYYCQQSYSTPQWTFGQGTKVEIK
